Results from paper PMC11359531, “Establishment of Dissolution Test Method for Multi-Components in Traditional Chinese Medicine Preparations Based on In Vitro–In Vivo Correlation” (Pharmaceuticals, 2024).

assay: BCS classification from solubility and permeability; details: based on permeability and solubility results

Row | Compound | BCS Type
1 | protopine | BCS I
2 | COc1cc2c(cc1OC)[C@H]1[C@@H](C)c3ccc(OC)c(OC)c3CN1CC2 [Corydaline, corydaline] | BCS I
3 | COc1c2ccoc2c(OC[C@@H](O)C(C)(C)O)c2oc(=O)ccc12 [Byakangelicin, byakangelicin] | BCS I
4 | COc1cc2c(cc1OC)[C@@H]1Cc3ccc(OC)c(OC)c3CN1CC2 [Tetrahydropalmatine, tetrahydropalmatine] | BCS I
5 | COc1ccc2c(c1OC)CN(C)CCc1cc3c(cc1C(=O)C2)OCO3 [α-allocryptopine] | BCS I

Some results come without the dose or concentration used.
